Measured values published in publication doi:10.1101/2023.08.10.552820.

T1: UBC13B (AtUBC36), two-hybrid fusion (Arabidopsis) (UniProt Q9FZ48)
T1 sequence: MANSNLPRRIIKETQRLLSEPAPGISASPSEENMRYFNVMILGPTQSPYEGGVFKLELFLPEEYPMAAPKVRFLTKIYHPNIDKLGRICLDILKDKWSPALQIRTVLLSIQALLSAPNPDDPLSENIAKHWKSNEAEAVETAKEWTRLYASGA

T2: UBC13A (AtUBC35), two-hybrid fusion (Arabidopsis) (UniProt Q94A97)
T2 sequence: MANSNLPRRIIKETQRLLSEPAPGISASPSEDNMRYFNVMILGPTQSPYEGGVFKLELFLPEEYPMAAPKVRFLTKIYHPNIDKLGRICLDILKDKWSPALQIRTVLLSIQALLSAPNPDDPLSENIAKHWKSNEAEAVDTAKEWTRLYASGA


Columns and labels:
[1] = target: Fni3 (Fen-interacting protein 3), two-hybrid bait (tomato (Solanum lycopersicum)) (UniProt V5KY71); test: two-hybrid
[2] = target: T1, UBC13B (AtUBC36), two-hybrid fusion (Arabidopsis); test: two-hybrid
[3] = target: T2, UBC13A (AtUBC35), two-hybrid fusion (Arabidopsis); test: two-hybrid
[4] = target: XBAT35.2^ΔRING-cYFP (Arabidopsis); test: split reporter
[5] = target: XBAT35.2-cYFP (Arabidopsis); test: split reporter
[6] = target: XBAT35.2-FLAG (Arabidopsis); test: co-IP
[7] = target: XBAT35.2-nYFP (Arabidopsis); test: split reporter
[8] = target: XBAT35.2^AA-nYFP (Arabidopsis); test: split reporter
[9] = target: XBAT35.2^ΔANK-cYFP (Arabidopsis); test: split reporter
[10] = target: XBAT35.2^ΔRING-nYFP (Arabidopsis); test: split reporter

Row | Molecule | binding [4] | binding [5] | binding [7] | also measured
1 | Fti1B (XBSL34), two-hybrid prey (from UniProt A0A3Q7HJI5) (enzyme) |  |  |  | binding [1]: binds
2 | XBAT35.2, two-hybrid fusion (Arabidopsis) (enzyme) |  |  |  | binding [2]: binds; binding [3]: binds
3 | BAK1-nYFP (receptor, UniProt Q94F62 26-615) NAEGDALSALKNSLADPNKVLQSWDATLVTPCTWFHVTCNSDNSVTRVDLGNANLSGQLVMQLGQLPNLQYLELYSNNITGTIPEQLGNLTELVSLDLYLNNLSGPIPSTLGRLKKLRFLRLNNNSLSGEIPRSLTAVLTLQVLDLSNNPLTGDIPVNGSFSLFTPISFANTKLTPLPASPPPPISPTPPSPAGSNRITGAIAGGVAAGAALLFAVPAIALAWWRRKKPQDHFFDVPAEEDPEVHLGQLKRFSLRELQVASDNFSNKNILGRGGFGKVYKGRLADGTLVAVKRLKEERTQGGELQFQTEVEMISMAVHRNLLRLRGFCMTPTERLLVYPYMANGSVASCLRERPESQPPLDWPKRQRIALGSARGLAYLHDHCDPKIIHRDVKAANILLDEEFEAVVGDFGLAKLMDYKDTHVTTAVRGTIGHIAPEYLSTGKSSEKTDVFGYGVMLLELITGQRAFDLARLANDDDVMLLDWVKGLLKEKKLEALVDVDLQGNYKDEEVEQLIQVALLCTQSSPMERPKMSEVVRMLEGDGLAERWEEWQKEEMFRQDFNYPTHHPAVSGWIIGDSTSQIENEYPSGPR | binds | binds |  | 
4 | BAK1-HA (receptor, UniProt Q94F62 26-615) NAEGDALSALKNSLADPNKVLQSWDATLVTPCTWFHVTCNSDNSVTRVDLGNANLSGQLVMQLGQLPNLQYLELYSNNITGTIPEQLGNLTELVSLDLYLNNLSGPIPSTLGRLKKLRFLRLNNNSLSGEIPRSLTAVLTLQVLDLSNNPLTGDIPVNGSFSLFTPISFANTKLTPLPASPPPPISPTPPSPAGSNRITGAIAGGVAAGAALLFAVPAIALAWWRRKKPQDHFFDVPAEEDPEVHLGQLKRFSLRELQVASDNFSNKNILGRGGFGKVYKGRLADGTLVAVKRLKEERTQGGELQFQTEVEMISMAVHRNLLRLRGFCMTPTERLLVYPYMANGSVASCLRERPESQPPLDWPKRQRIALGSARGLAYLHDHCDPKIIHRDVKAANILLDEEFEAVVGDFGLAKLMDYKDTHVTTAVRGTIGHIAPEYLSTGKSSEKTDVFGYGVMLLELITGQRAFDLARLANDDDVMLLDWVKGLLKEKKLEALVDVDLQGNYKDEEVEQLIQVALLCTQSSPMERPKMSEVVRMLEGDGLAERWEEWQKEEMFRQDFNYPTHHPAVSGWIIGDSTSQIENEYPSGPR |  |  |  | binding [6]: binds
5 | VPS37-1-cYFP (protein, UniProt Q9SCP9 1-217) MFNFWGSKDQQQGQSRPQEASSQSPWYSPSLVSSPSSSRPQSSGQISAQVSPGEAAGIIVFLKDKSVDELRKLLSDKDAYQQFLLSLDQVKVQNNIKDELRRETLQLARDNLEKEPQIMELRNQCRIIRTTELATAQEKLNELERQKEEILKFYSPGSLLHKLQEAMNQVDEESEALQEKFLEKEIDTAAFVQKYKKLRTTYHRRALIHLAAKTSNI |  |  | binds | binding [8]: binds
6 | VPS37-1-nYFP (protein, UniProt Q9SCP9 1-217) MFNFWGSKDQQQGQSRPQEASSQSPWYSPSLVSSPSSSRPQSSGQISAQVSPGEAAGIIVFLKDKSVDELRKLLSDKDAYQQFLLSLDQVKVQNNIKDELRRETLQLARDNLEKEPQIMELRNQCRIIRTTELATAQEKLNELERQKEEILKFYSPGSLLHKLQEAMNQVDEESEALQEKFLEKEIDTAAFVQKYKKLRTTYHRRALIHLAAKTSNI | binds | binds |  | binding [9]: no binding
7 | VPS28-2-nYFP (protein, UniProt Q9S9T7 1-210) MMEVKLWNDKREREMYENFAELFAIIKATEKLEKAYIRDLINPSEYESECQKLIVHFKTLSATLKDTVPNIERFADTYKMDCPAALYRLVTSGLPATVEHRATVAASTSNSASIVAECVQNFITSMDSLKLNMVAVDQVYPLLSDLSASLNKLSILPPDFEGKTKMKEWLSRLSKMGAADELTEQQSRQLHFDLESSYNSFMAALPKAGN | binds | binds |  | binding [9]: no binding
8 | VPS28-2-cYFP (protein, UniProt Q9S9T7 1-210) MMEVKLWNDKREREMYENFAELFAIIKATEKLEKAYIRDLINPSEYESECQKLIVHFKTLSATLKDTVPNIERFADTYKMDCPAALYRLVTSGLPATVEHRATVAASTSNSASIVAECVQNFITSMDSLKLNMVAVDQVYPLLSDLSASLNKLSILPPDFEGKTKMKEWLSRLSKMGAADELTEQQSRQLHFDLESSYNSFMAALPKAGN |  |  | binds | binding [8]: binds; binding [10]: binds
9 | DRP1A-cYFP (protein, UniProt P42697 1-610) MENLISLVNKIQRACTALGDHGDSSALPTLWDSLPAIAVVGGQSSGKSSVLESIVGKDFLPRGSGIVTRRPLVLQLQKIDDGTREYAEFLHLPRKKFTDFAAVRKEIQDETDRETGRSKAISSVPIHLSIYSPNVVNLTLIDLPGLTKVAVDGQSDSIVKDIENMVRSYIEKPNCIILAISPANQDLATSDAIKISREVDPSGDRTFGVLTKIDLMDKGTDAVEILEGRSFKLKYPWVGVVNRSQADINKNVDMIAARKREREYFSNTTEYRHLANKMGSEHLAKMLSKHLERVIKSRIPGIQSLINKTVLELETELSRLGKPIAADAGGKLYSIMEICRLFDQIFKEHLDGVRAGGEKVYNVFDNQLPAALKRLQFDKQLAMDNIRKLVTEADGYQPHLIAPEQGYRRLIESSIVSIRGPAEASVDTVHAILKDLVHKSVNETVELKQYPALRVEVTNAAIESLDKMREGSKKATLQLVDMECSYLTVDFFRKLPQDVEKGGNPTHSIFDRYNDSYLRRIGSNVLSYVNMVCAGLRNSIPKSIVYCQVREAKRSLLDHFFAELGTMDMKRLSSLLNEDPAIMERRSAISKRLELYRAAQSEIDAVAWSK |  |  | no binding | 
10 | DRP2B-cYFP (protein, UniProt Q9LQ55 1-920) MEAIDELSQLSDSMRQAASLLADEDPDETSSSRRPATSLNVVALGNVGAGKSAVLNSLIGHPVLPTGENGATRAPIIIDLSREESLSSKAIILQIDNKNQQVSASALRHSLQDRLSKGASGRGRDEIYLKLRTSTAPPLKLIDLPGLDQRIVDDSMIGEHAQHNDAILLVVVPASQASEISSSRALKIAKEYDPESTRTVGIISKIDQAAENPKSLAAVQALLSNQGPPKTTDIPWVALIGQSVSIASAQSGGSENSLETAWRAESESLKSILTGAPQSKLGRIALVDTLASQIRSRMKLRLPNILTGLQGKSQIVQDELARLGEQLVSSAEGTRAIALELCREFEDKFLLHLAGGEGSGWKVVASFEGNFPNRIKKLPLDRHFDLNNVKRIVLEADGYQPYLISPEKGLRSLIKTVLELAKDPARLCVDEVHRVLVDIVSASANATPGLGRYPPFKREVVAIASAALDGFKNEAKKMVVALVDMERAFVPPQHFIRLVQRRMERQRREEELKGRSSKKGQDAEQSLLNRATSPQPDGPSSTGGSLKSLRDKLMPQDKDKDKEKETPEVSGLKTAGPEGEITAGYLMKKSAKTNGWSRRWFVLNEKTGKLGYTKKQEERNFRGTVTLEECSIEEISDDEGEKSKSSKDKKSNGPDSKGPGLVFKITCRVPYKTVLKAHNALVLKAESMVDKNEWINKLQKVIQARGGQVGSASMRQSLSEGSLDKMVRKPVDPEEELRWMSQEVRGYVEAVLNSLAANVPKAVVLCQVEKSKEDMLNQLYSSISAIGNERIESLIQEDQNVKRRRDRYQKQSSLLSKLTRQLSIHDNRAAAASSWSDNSGTESSPRTNGGSSGEDWMNAFNAAASGPDSLKRYGSGGHSRRYSDPAQNGEDSSGSGGSSRRTTPNRLPPAPPQSGSSYRY |  |  | no binding | 

Results are given in words; binding and its absence hold for the method and conditions named. For some of these results: Binding can be weak; no strength is given. For some of these results: Tags and fused reporters may be left off the sequences shown. For some of these results: Binding seen in cells or lysates may run through a third protein.
